Measured values taken from US20030186419A1.
These are yes or no findings as the source states them, for the method shown. Some results given as binding are weak or reduced against the parent protein; the word gives no strength.

Sequences of proteins named here, by UniProt entry; tags and fusion partners are left off. A change or cut given only in a name is not applied to a line headed by its entry. A line that says so, or that is headed by a name, gives the form on record, which may keep a tag or linker. Residues count along the entry.
UniProt P11226, residues 21-248: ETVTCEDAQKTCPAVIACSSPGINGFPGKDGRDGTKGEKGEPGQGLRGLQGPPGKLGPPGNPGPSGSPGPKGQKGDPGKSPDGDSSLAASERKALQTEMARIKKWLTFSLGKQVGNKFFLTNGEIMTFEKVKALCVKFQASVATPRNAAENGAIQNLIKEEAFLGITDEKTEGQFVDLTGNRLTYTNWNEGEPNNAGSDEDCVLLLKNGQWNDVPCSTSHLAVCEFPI
UniProt P48740, residues 20-699: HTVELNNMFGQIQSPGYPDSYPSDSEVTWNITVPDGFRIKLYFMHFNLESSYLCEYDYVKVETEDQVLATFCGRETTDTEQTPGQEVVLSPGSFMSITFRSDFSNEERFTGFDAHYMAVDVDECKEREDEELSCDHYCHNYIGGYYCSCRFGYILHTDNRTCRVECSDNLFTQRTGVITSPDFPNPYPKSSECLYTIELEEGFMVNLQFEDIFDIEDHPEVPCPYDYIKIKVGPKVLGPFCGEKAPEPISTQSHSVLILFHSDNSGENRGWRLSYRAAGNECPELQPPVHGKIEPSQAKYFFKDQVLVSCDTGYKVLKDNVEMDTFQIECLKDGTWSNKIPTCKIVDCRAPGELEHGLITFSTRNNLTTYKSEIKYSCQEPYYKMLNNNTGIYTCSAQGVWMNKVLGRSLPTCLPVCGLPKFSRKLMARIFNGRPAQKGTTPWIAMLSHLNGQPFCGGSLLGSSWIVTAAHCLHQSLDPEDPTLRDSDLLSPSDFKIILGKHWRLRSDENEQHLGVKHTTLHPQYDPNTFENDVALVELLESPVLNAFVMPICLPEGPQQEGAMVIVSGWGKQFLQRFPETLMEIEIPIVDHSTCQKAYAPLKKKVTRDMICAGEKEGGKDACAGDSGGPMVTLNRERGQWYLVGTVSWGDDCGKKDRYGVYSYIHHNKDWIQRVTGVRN
MASP-2 (MBL-associated serine protease 2) (O00187, residues 16-686): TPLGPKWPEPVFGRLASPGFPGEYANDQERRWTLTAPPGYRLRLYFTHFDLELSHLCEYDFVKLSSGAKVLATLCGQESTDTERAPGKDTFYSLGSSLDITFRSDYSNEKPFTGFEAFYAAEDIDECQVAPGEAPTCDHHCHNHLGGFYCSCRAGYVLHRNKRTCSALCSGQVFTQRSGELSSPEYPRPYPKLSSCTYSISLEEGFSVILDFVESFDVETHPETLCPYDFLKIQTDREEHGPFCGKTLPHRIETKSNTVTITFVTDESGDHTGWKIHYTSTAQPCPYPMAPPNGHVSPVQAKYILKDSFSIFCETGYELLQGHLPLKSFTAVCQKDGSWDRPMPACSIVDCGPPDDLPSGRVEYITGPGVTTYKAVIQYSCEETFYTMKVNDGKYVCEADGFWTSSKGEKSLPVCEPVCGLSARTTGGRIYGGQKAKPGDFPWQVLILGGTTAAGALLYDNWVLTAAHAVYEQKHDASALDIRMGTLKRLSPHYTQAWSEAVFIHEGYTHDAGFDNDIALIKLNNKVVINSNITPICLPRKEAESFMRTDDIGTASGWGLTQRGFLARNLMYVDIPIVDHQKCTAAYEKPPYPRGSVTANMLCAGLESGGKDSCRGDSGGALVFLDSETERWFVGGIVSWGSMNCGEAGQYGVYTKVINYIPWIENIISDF
MAp19 (O00187, form named): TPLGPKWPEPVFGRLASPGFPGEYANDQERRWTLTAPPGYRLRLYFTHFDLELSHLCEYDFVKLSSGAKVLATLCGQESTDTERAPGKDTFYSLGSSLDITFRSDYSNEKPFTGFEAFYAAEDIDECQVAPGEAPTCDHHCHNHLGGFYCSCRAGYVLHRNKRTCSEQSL

What was measured:
[1] = molecular target: MBL-I, the smallest MBL oligomer (approximate Mr 275K) (human) (UniProt P11226); assay: ion-exchange chromatography and sucrose gradient centrifugation of MBL complexes, Western blots of fractions
[2] = molecular target: MBL-I, the smallest MBL oligomer (approximate Mr 275K) (human) (UniProt P11226); assay: fractionation of MBL complexes, summary of results
[3] = molecular target: MBL-I, the smallest MBL oligomer (approximate Mr 275K) (human) (UniProt P11226); assay: fractionation of MBL complexes, Western blots
[4] = molecular target: MBL-II, MBL oligomer (approximate Mr 345K) (human) (UniProt P11226); assay: ion-exchange chromatography and sucrose gradient centrifugation of MBL complexes, Western blots of fractions
[5] = molecular target: MBL-II, MBL oligomer (approximate Mr 345K) (human) (UniProt P11226); assay: fractionation of MBL complexes, summary of results
[6] = molecular target: MBL-II, MBL oligomer (approximate Mr 345K) (human) (UniProt P11226); assay: fractionation of MBL complexes, Western blots

Measured: binding

MASP-1 (MBL-associated serine protease 1) (from UniProt P48740 20-699) (enzyme)
binds: [1] | [2] | [3]

MASP-2 (MBL-associated serine protease 2) (from UniProt O00187 16-686) (enzyme)
binds: [4] | [5] | [6]

MAp19 (from UniProt O00187 16-185)
binds: [1] | [2] | [3]
